In patent US20230126271A1, “DEGRADER-ANTIBODY CONJUGATES AND METHODS OF USING SAME” (Anglex, Inc., priority 2020, published 2023):
Results are given in words; binding and its absence hold for the method and conditions named. Some entries that bind do so weakly or less than the wild type.

T1: transmembrane-4 L six family member-1 (TM4SF1) (human) (UniProt P30408)
T1 sequence: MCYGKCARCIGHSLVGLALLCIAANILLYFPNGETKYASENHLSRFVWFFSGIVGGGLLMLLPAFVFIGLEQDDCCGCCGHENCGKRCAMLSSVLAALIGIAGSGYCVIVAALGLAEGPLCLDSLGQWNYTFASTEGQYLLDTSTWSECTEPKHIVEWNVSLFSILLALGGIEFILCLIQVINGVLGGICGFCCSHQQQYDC

B1: monoclonal murine antibody AGX-A08 (antibody, V domains shown)
VH: EVQLQQSGPELVKPGASVKLSCKASGYTVTSYVMHWVKQKPGQGLEWIGYINPYSDVTNCNEKFKGKATLTSDKTSSTAYMELSSLTSEDSAVYYCSSYGGGFAYWGQGTLVTVSA
VL: DIQMTQSPASLSASVGEPVTITCRASKNIYTYLAWYHQKQGKSPQFLVYNARTLAGGVPSRLSGSGSVTQFSLNINTLHREDLGTYFCQHHYDTPYTFGGGTNLEIK
B2: monoclonal murine antibody AGX-A09 (antibody, V domains shown)
VH: EVQLQQSGPELVKPGASVKMSCKASGYTFSSYVMHWVKQKPGQGLEWIGYINPYSDVTNYNEKFKGKATLTSDRSSNTAYMELSSLTSEDSAVYYCARNYFDWGRGTLVTVSA
VL: DIQMTQSPASLSASVGETVTITCRASKNVYSYLAWFQQKQGKSPQLLVYNAKTLAEGVPSRFSGGGSGTQFSLKINSLQPADFGSYYCQHHYNIPFTFGSGTKLEIK
B3: monoclonal murine antibody AGX-A03 (antibody, V domains shown)
VH: QIQLVQSGPELKKPGETVKISCKASGYSFRDYGMNWVKQAPGRTFKWMGWINTYTGAPVYAADFKGRFAFSLDTSASAAFLQINNLKNEDTATYFCARWVSYGNNRNWFFDFWGAGTTVTVSS
VL: DVLMTQTPLSLPVRLGDQASISCRSSQTLVHSNGNTYLEWYLQKPGQSPKLLIYKVSNRLSGVPDRFSGSGSGTDFTLKISRVETEDLGVYYCFQGSHGPWTFGGGTKLEIK
B4: monoclonal murine antibody AGX-A05 (antibody, V domains shown)
VH: EVQVQQSGPELVKPGASVKMSCKASGYTFTSYVMHWVKQKPGQGLEWIGYINPNNDNINYNEKFKGKASLTSDKSSNTVYMELSSLTSEDSAVYYCAGYGNSGANWGQGTLVTVSA
VL: DIQMTQSPASLSASVGETVTITCRTSKNIFNFLAWYHQKQGRSPRLLVSHTKTLAAGVPSRFSGSGSGTQFSLKINSLQPEDFGIYYCQHHYGTPWTFGGGTKLEIK
B5: monoclonal murine antibody AGX-A04 (antibody, V domains shown)
VH: EVQLQQSGPELVKPGASVKISCKTSGYTFTDYTMHWVRQSHGKSLEWIGSFNPNNGGLTNYNQKFKGKATLTVDKSSSTVYMDLRSLTSEDSAVYYCTRIRATGFDSWGQGTTLTVSS
VL: DIVMSQSPSSLAVSAGEKVTMSCKSSQSLLNSRTRKNYLAWYQQKPGQSPKLLIYWASTRESGVPDRFTGSGSGTDFTLTISNVQAEDLTVYYCKQSYNPPWTFGGGTKLEIK
B6: monoclonal murine antibody AGX-A07 (antibody, V domains shown)
VH: QIQLVQSGPELKKPGETVKISCKASGYTFTNYGVKWVKQAPGKDLKWMGWINTYTGNPIYAADFKGRFAFSLETSASTAFLQINNLKNEDTATYFCVRFQYGDYRYFDVWGAGTTVTVSS
VL: QIILSQSPAILSASPGEKVTMTCRANSGISFINWYQQKPGSSPKPWIYGTANLASGVPARFGGSGSGTSYSLTISRVEAEDAATYYCQQWSSNPLTFGAGTKLELR

molecular target: T1, transmembrane-4 L six family member-1 (TM4SF1) (human); assay: screen, method not described

binding	Binder
binds	B1
binds	B2
binds	B3
binds	B4
binds	B5
binds	B6
